Data as given in PubChem BioAssay AID652243 (Drosophila RNAi Screening Center, 2013).
Assay: 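Fly genes required for human androgen receptor driven transcription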 (primary screen). Cell system: Drosophila S2R+ cells. Knock-down reagent: long dsRNA against Drosophila genes. Timing: 72 h (48 h, then 24 h hormone). Treatment: synthetic androgen R1881 at 10 nM for 24 h. Measurement: 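Per-well raw luminescence of the androgen-driven firefly reporter and of the Renilla control, two replicates each, without normalisation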. Scale: firefly reporter light: higher = more light from androgen-responsive reporter; Renilla control light: higher = more constitutive control signal (cell number, transfection). Active means: 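Across duplicate plates, a knock-down whose log firefly/Renilla ratio shifted a set fold down or up from the GFP/LacZ control mean was a hit; the downward cut appears as both 1.5 and 3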. Calls: active = hit: reporter lowered or raised; inactive = no hit.
In all, the deposit lists about 24,000 reagents; below is an unselected part of those that have a named target and a result. Over the whole deposit, 246 (1%) are marked active. 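Plates not normalised; calls are printed but the firefly/Renilla ratio behind them is not deposited; fold cut for lowering reported inconsistently.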 Raw values vary from plate to plate and are shown uncorrected. A plus sign joins genes that one reagent is predicted to hit. Not given: the amount of reagent.

The opening 2 records as a preview:
no.	gene	DRSC id	firefly reporter light, replicate 1	firefly reporter light, replicate 2	Renilla control light, replicate 1	Renilla control light, replicate 2	outcome
1	RhoGAP18B	DRSC19763	1.98e5	2.36e5	8.95e5	4.13e5	inactive
2	RhoGAP18B	DRSC20047	1.78e5	1.39e5	8.64e5	4.04e5	inactive

The listing, from the first entry:
no.	gene	DRSC id	firefly reporter light, replicate 1	firefly reporter light, replicate 2	Renilla control light, replicate 1	Renilla control light, replicate 2	outcome
1	RhoGAP18B	DRSC19763	1.98e5	2.36e5	8.95e5	4.13e5	inactive
2	RhoGAP18B	DRSC20047	1.78e5	1.39e5	8.64e5	4.04e5	inactive
3	RhoGAP18B	DRSC20048	1.88e5	1.84e5	5.38e5	3.17e5	inactive
4	RhoGAP18B	DRSC20049	47038	15720	2.18e5	1.32e5	inactive
5	RhoGAP18B	DRSC25093	1.02e6	8.72e5	8.47e5	7.21e5	inactive
6	alpha-Est10	DRSC12613	1.10e5	1.44e5	1.28e6	1.29e6	inactive
7	alpha-Est10	DRSC25456	1.08e6	8.83e5	1.01e6	8.50e5	inactive
8	Saf6	DRSC00633	7.38e5	8.97e5	2.63e6	2.42e6	inactive
9	ths	DRSC23123	4.26e5	5.26e5	6.81e5	1.03e6	inactive
10	ths	DRSC27271	1.49e5	2.13e5	5.21e5	5.34e5	inactive
11	Ugt37A2	DRSC15861	2.03e5	1.70e5	2.36e6	2.06e6	inactive
12	Ugt37A2	DRSC29967	4.55e5	3.56e5	1.36e6	1.00e6	inactive
13	CG40172 (retired record)	DRSC37759	8.97e5	6.93e5	1.92e6	1.28e6	inactive
14	Atg1	DRSC09809	1.14e6	8.77e5	1.63e6	1.71e6	inactive
15	Atg1	DRSC09810	2.90e5	2.91e5	2.17e6	1.64e6	inactive
16	Atg1	DRSC37017					inactive
17	Atpalpha	DRSC14119	1.05e5	82748	8.09e5	7.92e5	inactive
18	Atpalpha	DRSC39134	8.58e5	7.23e5	1.97e6	1.54e6	inactive
19	CG31546	DRSC12317	22970	28965	2.38e5	1.88e5	inactive
20	CG31546	DRSC25825	3.66e5	3.04e5	8.36e5	5.61e5	inactive
21	T3dh + pgc	DRSC04659	7.54e5	6.09e5	1.14e6	9.95e5	inactive
22	Faa	DRSC08451	1.26e6	9.78e5	1.99e6	1.09e6	inactive
23	CG42271	DRSC19809	66790	1.20e5	2.63e5	6.10e5	inactive
24	CG42271	DRSC22894	5.65e5	1.08e6	2.26e6	2.40e6	inactive
25	CG42271	DRSC27249	1.85e5	2.74e5	4.90e5	5.74e5	inactive
26	CG42271	DRSC27338	5.48e5	5.61e5	7.82e5	8.37e5	inactive
27	CG42271	DRSC39296					inactive
